For this assay, the target named is T1, AtALKBH9B:GFP (proUBQ10::AtALKBH9B:GFP) (Arabidopsis (Col-0 cDNA)) (UniProt Q9SL49).
T1 sequence: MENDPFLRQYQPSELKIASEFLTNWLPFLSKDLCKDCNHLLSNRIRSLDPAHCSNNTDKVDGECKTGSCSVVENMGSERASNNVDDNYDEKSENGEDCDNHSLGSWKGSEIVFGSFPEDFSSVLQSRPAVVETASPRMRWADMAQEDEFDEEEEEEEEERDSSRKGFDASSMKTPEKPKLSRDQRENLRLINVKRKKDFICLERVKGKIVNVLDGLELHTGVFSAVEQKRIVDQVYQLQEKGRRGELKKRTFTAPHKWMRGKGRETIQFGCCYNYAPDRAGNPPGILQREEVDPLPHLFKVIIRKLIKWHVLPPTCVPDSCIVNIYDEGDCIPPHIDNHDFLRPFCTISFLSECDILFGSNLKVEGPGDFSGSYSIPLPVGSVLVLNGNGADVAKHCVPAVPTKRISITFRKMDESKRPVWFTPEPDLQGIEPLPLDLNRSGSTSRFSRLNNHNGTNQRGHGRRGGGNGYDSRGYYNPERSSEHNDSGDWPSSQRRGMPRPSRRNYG
In words: affinity purification with mass spectrometry.

No constants are given. Whether binding was seen depends on the method and setting. In cells and extracts the contact can be indirect. Here binding means that the protein was enriched with, or labelled near, the bait; the list need not be complete. Sequences can lack the tags named with a protein.

B1: ECT1 (protein, UniProt Q3MK94 1-428)
chain: MAGAASSDRLVTSFPLLDTADLFQDLSLGSDANEVPMNFTKGSFQHPYGHAPYGASSHGSERRPNMNAGNLLNGGDSIGSYPWGYIPANYPSGGYPDPRFGYDRNSNHSSFSHLMNPHSSQEVPSFDQLGYNDHLYSNHGLYGLYGNVIDSGHAYGTFGYDSWKLGRGWYPVDGYRKTRSFNHGRGYSDEKADRLNELCRGPRSSDFKNPQVLNSSMLDAMKQDVSAVDLQRYNGENFPESFVKAKFFVIKSYSEDDVHNCIKYGAWSSTPTGNKKLNAAYYEAKENSQECPVYLLFSVNASGQFVGLAEMVGPVDFNKTMEYWQQDKWIGCFPVKWHIIKDIPNSLLRHITLANNENKPVTNSRDTQEVNLEHGTKIIKIFKEYMSKTCILDDYKFYETRQKIIRDKKIKQKKQALDGASGETINLS
For B1, the binding entry is recorded as “binds”.

B2: ECT2 (protein, UniProt Q9LJE5 1-667)
chain: MATVAPPADQATDLLQKLSLDSPAKASEIPEPNKKTAVYQYGGVDVHGQVPSYDRSLTPMLPSDAADPSVCYVPNPYNPYQYYNVYGSGQEWTDYPAYTNPEGVDMNSGIYGENGTVVYPQGYGYAAYPYSPATSPAPQLGGEGQLYGAQQYQYPNYFPNSGPYASSVATPTQPDLSANKPAGVKTLPADSNNVASAAGITKGSNGSAPVKPTNQATLNTSSNLYGMGAPGGGLAAGYQDPRYAYEGYYAPVPWHDGSKYSDVQRPVSGSGVASSYSKSSTVPSSRNQNYRSNSHYTSVHQPSSVTGYGTAQGYYNRMYQNKLYGQYGSTGRSALGYGSSGYDSRTNGRGWAATDNKYRSWGRGNSYYYGNENNVDGLNELNRGPRAKGTKNQKGNLDDSLEVKEQTGESNVTEVGEADNTCVVPDREQYNKEDFPVDYANAMFFIIKSYSEDDVHKSIKYNVWASTPNGNKKLAAAYQEAQQKAGGCPIFLFFSVNASGQFVGLAEMTGPVDFNTNVEYWQQDKWTGSFPLKWHIVKDVPNSLLKHITLENNENKPVTNSRDTQEVKLEQGLKIVKIFKEHSSKTCILDDFSFYEVRQKTILEKKAKQTQKQVSEEKVTDEKKESATAESASKESPAAVQTSSDVKVAENGSVAKPVTGDVVANGC
For the molecule B2, the binding result is listed as “binds”.

The values above are taken from paper doi:10.1101/2022.03.22.485398.
